# Library screen at single concentrations

By UniProt entry, the sequences of proteins in these tests, tags left out. Residues count along the entry.
UniProt Q8IDJ8, 1-583: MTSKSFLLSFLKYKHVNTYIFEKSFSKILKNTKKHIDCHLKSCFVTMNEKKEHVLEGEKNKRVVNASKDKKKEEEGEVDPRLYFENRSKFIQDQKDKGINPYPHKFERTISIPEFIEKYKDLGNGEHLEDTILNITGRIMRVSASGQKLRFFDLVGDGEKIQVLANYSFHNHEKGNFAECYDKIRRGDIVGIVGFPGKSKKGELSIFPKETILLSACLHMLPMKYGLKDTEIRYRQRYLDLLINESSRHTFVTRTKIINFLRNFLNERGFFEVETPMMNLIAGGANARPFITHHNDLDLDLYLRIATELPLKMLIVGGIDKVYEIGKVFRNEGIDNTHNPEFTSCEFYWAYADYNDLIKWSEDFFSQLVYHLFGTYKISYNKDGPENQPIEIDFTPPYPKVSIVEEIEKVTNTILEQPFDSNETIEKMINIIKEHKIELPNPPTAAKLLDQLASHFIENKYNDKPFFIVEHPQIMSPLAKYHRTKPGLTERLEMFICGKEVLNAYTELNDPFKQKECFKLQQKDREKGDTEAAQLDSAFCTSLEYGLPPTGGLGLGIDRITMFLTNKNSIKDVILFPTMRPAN
UniProt A4I591, 1-473: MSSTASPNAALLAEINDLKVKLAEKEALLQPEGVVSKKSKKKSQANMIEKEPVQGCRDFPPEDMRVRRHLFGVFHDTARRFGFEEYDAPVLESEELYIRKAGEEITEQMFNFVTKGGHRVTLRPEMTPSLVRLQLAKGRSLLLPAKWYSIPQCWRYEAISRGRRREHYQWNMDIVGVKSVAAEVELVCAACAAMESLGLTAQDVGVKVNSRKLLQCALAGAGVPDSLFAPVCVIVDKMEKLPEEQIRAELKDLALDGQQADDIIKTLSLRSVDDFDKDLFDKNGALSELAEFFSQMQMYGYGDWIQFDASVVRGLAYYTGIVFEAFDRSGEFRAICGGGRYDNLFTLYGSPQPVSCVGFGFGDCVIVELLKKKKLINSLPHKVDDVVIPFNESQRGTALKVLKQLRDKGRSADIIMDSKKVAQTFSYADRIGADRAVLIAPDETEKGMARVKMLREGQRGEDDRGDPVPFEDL

Leishmania in macrophages: 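Cell assay of Leishmania donovani living inside macrophages; the read-out is not stated. Compounds at 30 µM. Higher reads as stronger inhibition (inferred: compounds with an IC50 in retests scored well above the rest). About 69,000 compounds were tested under these conditions; 1.5% (about 1,000) showed 50% or more at least once.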
PfKRS1: 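Enzyme assay of the cytosolic lysyl-tRNA synthetase in 384-well plates, read by luminescence. Target: Lysine-tRNA ligase, Plasmodium falciparum 3D7 (UniProt Q8IDJ8). Tested at 30 µM. Higher reads as stronger inhibition, judged from the few compounds that gave an IC50. Of about 69,000 compounds tested this way, about 49 (0.071%) reached 50% or more in at least one test.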
LiHisRS: 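Histidine-tRNA ligase, Leishmania infantum (UniProt A4I591). Enzyme assay of histidyl-tRNA synthetase; the read-out is not stated. Concentration: 30 µM. Higher reads as stronger inhibition (inferred: compounds with an IC50 in retests scored well above the rest). The assay is labelled LdHisRS but filed under L. infantum. Of about 69,000 compounds tested this way, about 410 (0.6%) reached 50% or more in at least one test.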

Each number is a percent effect as filed. The record does not define 0% and 100%; most values in the screen are far below 50% and negative numbers occur (in some assays of this library far below -100). The compounds are a random part of those screened. Two or more numbers in one place are separate tests of the same structure; such repeats can differ widely. A dash means the value is not listed here; it may have been measured.

| compound | Leishmania in macrophages | PfKRS1 | LiHisRS |
|---|---|---|---|
| `Cc1ccc(NC(=O)NCC2CCS(=O)(=O)C2)cc1Cl` (stereo unspecified) | 40.18 | 1.502 | 13.83 |
| `CCc1ccc(NC(=O)C(C)N2CCN(Cc3ncc[nH]3)CC2)cc1` (stereo unspecified) | 4.334 | -0.07624 | 19.51 |
| `COCc1nn(CC2CC2)c2c1CN(Cc1cccs1)CC2` | - | 1.285 | 19.42 |
| `COCC(c1cccc(C(F)(F)F)c1)N(C)C(=O)c1cccnc1` (stereo unspecified) | 20.48 | -0.1489 | 21.43 |
| `Cc1nc(C)n(C2CCCN(C(=O)CCOc3cccc(F)c3)C2)n1` (stereo unspecified) | 10.92 | 1.826 | 3.478 |
| `CNCCCNc1nc(C2CCCC2)nc2c1cnn2C` | 31.37 | 0.7783 | 14.52 |
| `CN1CCCCc2c1nc1c(c2N)CCCC1` | 26.55 | -0.1569 | 16.67 |
| `COc1ccc(CN2CCc3ncnc(C4CCOC4)c3CC2)cc1.O=C(O)C(F)(F)F` (stereo unspecified) | 20.96 | - | - |
| `Cc1ccccc1CN(CCN(C)C)Cc1ccccc1C(=O)O` | 14 | 9.385 | 13.11 |
| `COCc1nccc(C2CCCN(Cc3cccc(C#N)c3)C2)n1` (stereo unspecified) | 20.41 | 5.153 | 9.649 |
| `COc1ccc(NC(=O)Cc2c(C)nc3c(c2C)c(=O)[nH]n3C)cn1` | 25.24 | 1.564 | 11.57 |
| `CCN1CCN(C(=O)CCC2CCN(C(C)CCC(=O)OC)CC2)CC1` (stereo unspecified) | -0.07798 | -0.7271 | 1.695 |
| `[H][C@@]12CC[C@H](Oc3ccccc3F)[C@]1([H])CN(C(=O)COCCOC)C2` | 11.86 and 5.681 | - | - |
| `O=C(CN1C(=O)CC2(CCCC2)C1=O)NCCc1nccs1` | 8.005 | 2.03 | 22.5 |
| `COCC1CN(S(=O)(=O)c2cccs2)Cc2ncnn2C1` (stereo unspecified) | 38.74 | 2.732 | 18 |
| `O=C(NCCN1CCCCC1)c1ccn(-c2ccccc2)n1` | 1.037 | 0.5995 | 1.739 |
| `CN(C)Cc1cccc(-c2cccnc2C(=O)NCc2ccccn2)c1` | 3.523 | 1.09 | 8.451 |
| `c1cc(-c2nnn3c2COC(CNCc2nccs2)C3)ccn1` (stereo unspecified) | 27.75 | 6.229 | 2.655 |
| `COC(=O)c1cc(C)nc(N2CCN(Cc3ccn(C(C)C)c3)CC2)n1` | -5.326 | 4.013 | 12.09 |
| `C[S+](C)[c-]1c(=O)[nH]c(=O)n(CCc2ccc(F)cc2)c1=O` | 2.375 | 2.534 | 10.42 |
| `O=c1[nH]c(-c2ccncc2)nc2c1CCN(S(=O)(=O)N1CCCC1)C2` | 0.2766 | 10.74 | 4.301 |
| `Cc1noc(CCCC(=O)Nc2ncccc2Br)n1` | -8.685 | 6.109 | 4.386 |
| `Cc1noc(C)c1CN(C)Cn1c(=O)oc2ccccc21` | 0.591 | -2.995 | 17.07 |
| `Cl.Cn1nc(C2CCCN(Cc3ccc(F)cc3)C2)c2nccnc21` (stereo unspecified) | 0.9065 | - | - |
| `COc1cc(-c2cc(N)ncn2)cc(OC)c1OC` | 0.8289 and -18.36 | 2.853 | 11.43 |
| `O=C1COc2ccc(C(=O)N3CCCC(n4ccnc4)C3)cc2N1` (stereo unspecified) | 2.591 | 1.376 | 13.16 |
| `O=C(O)C(F)(F)F.O=C(O)C(F)(F)F.[H][C@@]12CCCO[C@]1([H])[C@H](N(C)C)CN2Cc1ccc(C)o1` | 6.804 | - | - |
| `c1cncc(OC[C@]23COC[C@H]2CN(C2CCC2)C3)c1` | - | 4.085 | 15.38 |
| `O=C(O)C(F)(F)F.[H][C@@]12CN(C(=O)c3ccncc3F)C[C@]1([H])OCCN2CC1CC1` | 5.13 | - | - |
| `CCN1CC2(CC1=O)CN(C(=O)c1ccsc1)CCN(C(=O)N(C)C)C2` (stereo unspecified) | 29.61 | 2.774 | 11.29 |
| `O=C(CC1CCCC1)N1CCC2(CC1)[C@H](O)C[C@@H]2O` | 13.18 | 1.232 | 6.329 |
| `CCCn1cnnc1CNC1CCSC1` (stereo unspecified) | 7.536 | 7.366 | 1.493 |
| `COc1c(C2CCCN2c2ncnc3c2cnn3C)c(C)nn1C` (stereo unspecified) | 10.58 | 1.504 | -0.5236 |
| `O=C(O)C(F)(F)F.[H][C@@]12CN(C(=O)c3ccoc3C)C[C@@]1([H])N(Cc1cccnc1)C(=O)CO2` | 24.36 and 4.739 | - | - |
| `Cn1cc(CN2CCC3(CCCN(C(=O)c4cscn4)C3)C2)cn1` (stereo unspecified) | 31.21 | 4.899 | 9.677 |
| `c1cncc(O[C@H]2COCCN(C3CCC3)C2)c1` | -34.36 | 5.776 | 25.68 |
| `Cc1cc(C2CCCN(CCCS(C)(=O)=O)C2)n[nH]1` (stereo unspecified) | 24.1 | -0.1702 | 10.71 |
| `Cc1cccc(N2CCN(C(=O)CCc3ccsc3)C(C)C2)n1` (stereo unspecified) | 13.69 and 14.19 | 6.727 | 15.79 |
| `CC1COC2(CCN(C(=O)c3ncoc3C(C)C)CC2)O1` (stereo unspecified) | 28.85 | 3.595 | 4.11 |
| `Cc1nn(S(=O)(=O)c2ccc(Cl)cc2)c(C)c1C` | 3.6 | 4.826 | -5.357 |
| `c1cc(C2CCN(Cc3ccc4c(c3)OCO4)CC2)ccn1` | 17.7 | 3.609 | 6.993 |
| `CNC(=O)CN1C(=O)CCC12CCCN(CCc1ccccc1)C2` (stereo unspecified) | 9.899 | 3.052 | 23.3 |
| `Cn1cc(CCNC(=O)N2CCCc3c(F)cccc32)cn1` | -18.45 | -1.861 | 3.448 |
| `O=c1[nH]c2nc(N3CCSCC3)ncc2c(=O)n1-c1ccc(F)cc1` | 28.73 | 8.309 | 20 |
| `CCCc1cc(C(=O)N(C)Cc2cnn(-c3cccc(OC)c3)c2)[nH]n1` | 12.81 | 0.4459 | 31.43 |
| `COc1cc(C)c(CNC(C)c2nc(C)cs2)cc1OC` (stereo unspecified) | -3.131 | 3.546 | 13.49 |
| `Cn1nc(C(=O)N2CCOCC2)cc1C(=O)Nc1c(Cl)cccc1Cl` | 16.83 | -0.5418 | 0 |
| `CCCC(CNc1cc(C(C)C)nc2ccnn12)N(C)C` (stereo unspecified) | -7.212 | -0.2558 | 16.39 |
| `O=C(Cc1cnccn1)N1C[C@H]2CC[C@@H]1CN(Cc1cscn1)C2` | - | 2.486 | 10.39 |
| `[H][C@]12CCN(C(C)=O)CC[C@@]1([H])S(=O)(=O)N(CCOC)C2` | 19.92 | - | - |
| `COc1c(CNCC(O)c2ccccc2F)c(C(C)C)nn1C` (stereo unspecified) | -17.84 | -3.267 | 12.17 |
| `Cc1nc(C)n(CC2CCCN(CC(=O)Nc3ccncc3)C2)n1` (stereo unspecified) | 29.85 | 2.068 | 12.84 |
| `N#Cc1cccc(C(=O)N2CCn3c(Cn4cncn4)cnc3C2)c1` | -6.03 | 0.5189 | 9.722 |
| `CN(C(=O)Cn1nc(-c2ccc(Br)cc2)ccc1=O)C1CCS(=O)(=O)C1` (stereo unspecified) | 8.237 | 1.285 | 18.42 |
| `O=C(O)C(F)(F)F.O=C(c1cccs1)N1CCC[C@]2(C[C@@H](OCc3ccncc3)CO2)C1` | 14.98 | - | - |

For reference, 3 entries once more:

compound,Leishmania in macrophages,PfKRS1,LiHisRS
CNCCCNc1nc(C2CCCC2)nc2c1cnn2C,31.37,0.7783,14.52
O=C(NCCN1CCCCC1)c1ccn(-c2ccccc2)n1,1.037,0.5995,1.739
CCN1CC2(CC1=O)CN(C(=O)c1ccsc1)CCN(C(=O)N(C)C)C2 (stereo unspecified),29.61,2.774,11.29

Source: ChEMBL document CHEMBL3988442, “University of Dundee, Small-Polar-MMV Screening Library” (2021).